PubChem BioAssay AID1259308, NCATS | 2017

- Screen: 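Knock-downs that increase output of a recombinant reporter protein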 (primary screen)
- Cell system: human HEK293 embryonic kidney cells stably expressing firefly luciferase (HEK-CMV-Luc2-Hygro)
- Reagent: single siRNA against human genes, 0.8 pmol siRNA per well
- Duration: 72 h
- Read-out: 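Luciferase light (ONE-Glo) measured on one replicate plate set and viability (CellTiter-Glo) on the other, scaled to a negative control siRNA, with robust z-scores and luciferase per cell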
- Reading the numbers: total luciferase, z-score and total luciferase, % of control: higher = more reporter protein produced; luciferase per cell, z-score: higher = more reporter output per viable cell; viable cells, % of control: higher = more viable cells
- Active means: 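Active when the median/MAD z-score for overall luciferase is greater than 3; a gene was taken forward for validation with new siRNAs if at least two of its three siRNAs passed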
- Meaning of the calls: active = raised luciferase; inactive = no rise
The deposit covers about 59,000 reagents; below is an unselected part. About 1,510 of all reagents (2.6%) were called active. 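Calls use total luciferase alone and ignore viability, so some active siRNAs may act by altering cell number.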

no.	gene	PubChem SID	total luciferase, z-score	total luciferase, % of control	luciferase per cell, z-score	viable cells, % of control	call
1	EVI5L	SID160755252	-0.17	78.5	-0.01	88	inactive
2	EVI5L	SID160755253	1.83	118	1.25	95	inactive
3	EVI5L	SID160755254	-0.162	78.7	-0.302	95.2	inactive
4	PAGE5	SID160753799	-0.212	77.7	-0.95	111	inactive
5	PAGE5	SID160753800	-0.0306	81.3	-0.154	94.6	inactive
6	PAGE5	SID160753801	0.776	97.3	0.247	102	inactive
7	BBC3	SID160738395	1.51	112	0.555	108	inactive
8	BBC3	SID160738396	1.46	111	1.24	89.5	inactive
9	BBC3	SID160738397	-2.53	31.6	-2.83	74.5	inactive
10	KLHL1	SID160746445	1.26	107	1.54	79.6	inactive
11	KLHL1	SID160746446	-1.13	59.5	-1.05	87.6	inactive
12	KLHL1	SID160746447	-0.418	73.6	-0.253	87.9	inactive
13	DCBLD2	SID160757075	-0.131	79.3	-0.611	104	inactive
14	DCBLD2	SID160757076	-1.3	56	-0.981	81	inactive
15	DCBLD2	SID160757077	-0.906	63.9	-0.115	73.6	inactive
16	PLPP4	SID160730746	-0.81	65.8	-0.753	89.6	inactive
17	PLPP4	SID160760573	-1.17	58.6	-1.15	88.6	inactive
18	PLPP4	SID160760574	-0.813	65.7	-1.33	104	inactive
19	POM121L9P	SID160724380	-0.711	67.7	-0.676	90.4	inactive
20	POM121L9P	SID160724381	0.227	86.4	-0.164	101	inactive
21	POM121L9P	SID160739158	1.09	103	1.02	88.5	inactive
22	ITM2C	SID160750901	-0.746	67.1	-0.881	94.5	inactive
23	ITM2C	SID160750902	-0.632	69.3	-0.847	96.8	inactive
24	ITM2C	SID160750903	0.19	85.7	-0.114	98.7	inactive

Continued; the last 2 above are carried over.
no.	gene	PubChem SID	total luciferase, z-score	total luciferase, % of control	luciferase per cell, z-score	viable cells, % of control	call
23	ITM2C	SID160750902	-0.632	69.3	-0.847	96.8	inactive
24	ITM2C	SID160750903	0.19	85.7	-0.114	98.7	inactive
25	ASF1B	SID160744186	-2.13	39.5	-2.21	78.9	inactive
26	ASF1B	SID160744187	0.587	93.6	-0.114	108	inactive
27	ASF1B	SID160744188	-1.31	55.8	-0.608	73.2	inactive
28	TMED1	SID160724305	-0.809	65.8	-1.41	107	inactive
29	TMED1	SID160729755	0.296	87.8	0.773	80	inactive
30	TMED1	SID160729757	0.193	85.7	0.295	88.6	inactive
31	OR5L2	SID160737951	-2.19	38.4	-0.674	51.3	inactive
32	OR5L2	SID160737953	0.567	93.2	0.486	91.6	inactive
33	OR5L2	SID160737954	2.99	141	2.44	83	inactive
34	MYL7	SID160731630	0.413	90.1	1.42	69.3	inactive
35	MYL7	SID160746858	0.888	99.5	1.76	70	inactive
36	MYL7	SID160746859	-2.14	39.3	-0.915	55.9	inactive
37	CCDC78	SID160756140	-1.09	60.1	-0.807	83.1	inactive
38	CCDC78	SID160756141	2.06	123	2.69	67.7	inactive
39	CCDC78	SID160756142	-0.263	76.7	-0.348	93.9	inactive
40	DACT3	SID160758586	3.06	143	1.6	105	active
41	DACT3	SID160758587	-0.198	78	-0.0948	89.3	inactive
42	DACT3	SID160758588	1.74	117	1.13	96.8	inactive
43	ANKZF1	SID160743034	1.82	118	2.36	71	inactive
44	ANKZF1	SID160743036	1.46	111	0.827	99.7	inactive
45	ANKZF1	SID160743037	1.07	103	0.847	92.2	inactive
46	PIGF	SID160714312	-0.496	72	-0.351	88.3	inactive
47	PIGF	SID160714314	0.703	95.9	-0.128	111	inactive
48	PIGF	SID160714315	2.22	126	2.3	76.8	inactive
49	PABPC1L	SID160750417	1.05	103	0.207	109	inactive
50	PABPC1L	SID160750419	-0.0735	80.4	-0.681	108	inactive
51	PABPC1L	SID160750420	-0.234	77.2	-0.58	101	inactive
52	CAPZB	SID160731986	1.36	109	1.33	85.8	inactive
53	CAPZB	SID160736477	-0.836	65.3	-1.31	103	inactive
54	CAPZB	SID160736488	1.87	119	1.52	89.2	inactive
55	A4GALT	SID160741525	-0.689	68.2	-0.359	83.7	inactive
56	A4GALT	SID160741526	0.241	86.7	-0.0419	97.9	inactive
57	A4GALT	SID160741527	-0.781	66.3	-0.96	95.5	inactive
